Measured values from article PMC11843152.
No constants are given. Whether binding was seen depends on the method and setting. In cells and extracts the contact can be indirect. Some results given as binding are weak or reduced against the parent protein; the word gives no strength.

The chains behind the UniProt entries cited, without tags or fusion partners.
UniProt Q01094: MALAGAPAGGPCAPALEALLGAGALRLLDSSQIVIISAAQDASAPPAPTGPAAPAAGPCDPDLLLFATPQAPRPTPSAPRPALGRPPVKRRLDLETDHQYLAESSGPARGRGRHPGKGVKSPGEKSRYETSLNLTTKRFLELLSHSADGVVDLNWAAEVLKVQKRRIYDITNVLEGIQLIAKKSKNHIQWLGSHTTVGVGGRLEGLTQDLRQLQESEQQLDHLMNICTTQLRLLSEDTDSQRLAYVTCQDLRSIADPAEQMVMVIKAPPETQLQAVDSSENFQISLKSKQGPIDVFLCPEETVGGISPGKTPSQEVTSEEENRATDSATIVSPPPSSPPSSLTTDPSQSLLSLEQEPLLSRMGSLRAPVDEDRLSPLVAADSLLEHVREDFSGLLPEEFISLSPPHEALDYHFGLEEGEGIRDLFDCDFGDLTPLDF
UniProt Q15003: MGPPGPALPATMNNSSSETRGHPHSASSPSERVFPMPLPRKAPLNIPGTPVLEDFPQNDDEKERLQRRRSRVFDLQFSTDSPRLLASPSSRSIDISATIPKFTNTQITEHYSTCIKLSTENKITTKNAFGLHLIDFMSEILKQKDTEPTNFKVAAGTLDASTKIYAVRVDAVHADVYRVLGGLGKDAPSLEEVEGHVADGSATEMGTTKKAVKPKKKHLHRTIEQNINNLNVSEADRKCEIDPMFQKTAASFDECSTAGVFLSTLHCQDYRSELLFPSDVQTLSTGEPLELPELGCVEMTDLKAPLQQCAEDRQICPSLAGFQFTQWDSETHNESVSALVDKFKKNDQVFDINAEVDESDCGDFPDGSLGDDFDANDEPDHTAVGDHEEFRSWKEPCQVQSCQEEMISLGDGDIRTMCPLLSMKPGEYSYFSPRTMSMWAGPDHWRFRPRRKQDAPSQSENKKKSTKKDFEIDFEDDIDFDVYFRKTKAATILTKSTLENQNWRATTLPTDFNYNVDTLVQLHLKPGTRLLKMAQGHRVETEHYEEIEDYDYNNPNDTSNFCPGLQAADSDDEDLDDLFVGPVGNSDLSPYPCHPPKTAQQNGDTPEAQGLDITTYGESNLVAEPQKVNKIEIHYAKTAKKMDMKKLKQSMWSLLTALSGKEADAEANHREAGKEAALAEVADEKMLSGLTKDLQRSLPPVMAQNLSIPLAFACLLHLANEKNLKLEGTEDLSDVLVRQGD

Target: E2F1 (transcription factor E2F1) (human (endogenous in LNCaP and PC3)) (UniProt Q01094)
Experiment: co-IP; endogenous proteins in LNCaP and PC3 cell lysates (Cell Lysis Buffer #9803); anti-NCAPH or anti-E2F1 antibody overnight at 4 °C, Protein A + G Agarose; rabbit IgG as negative control

- binding: binds
Substance: NCAPH (non-SMC condensin I complex subunit H) (from UniProt Q15003 1-741)
